For experiment [1], the target named is T1, HA-XtSTING stably expressed in MEF Sting-/- cells (MEF^XtSTING) (Xenopus tropicalis).
T1 sequence: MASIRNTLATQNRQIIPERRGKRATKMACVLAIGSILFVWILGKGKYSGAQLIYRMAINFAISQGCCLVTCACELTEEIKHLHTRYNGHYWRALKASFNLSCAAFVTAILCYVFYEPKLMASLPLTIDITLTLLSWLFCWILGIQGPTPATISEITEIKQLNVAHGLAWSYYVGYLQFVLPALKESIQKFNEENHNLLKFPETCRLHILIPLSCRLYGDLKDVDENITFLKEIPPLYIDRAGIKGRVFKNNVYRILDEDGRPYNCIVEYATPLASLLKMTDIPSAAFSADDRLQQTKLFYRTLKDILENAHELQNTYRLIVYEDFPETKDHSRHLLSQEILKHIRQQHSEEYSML
The experiment is described as follows: native gel or EMSA.

The target of experiment [2] is T2, XtFADS2-FLAG (FADS2 of Xenopus tropicalis) (Xenopus tropicalis).
T2 sequence: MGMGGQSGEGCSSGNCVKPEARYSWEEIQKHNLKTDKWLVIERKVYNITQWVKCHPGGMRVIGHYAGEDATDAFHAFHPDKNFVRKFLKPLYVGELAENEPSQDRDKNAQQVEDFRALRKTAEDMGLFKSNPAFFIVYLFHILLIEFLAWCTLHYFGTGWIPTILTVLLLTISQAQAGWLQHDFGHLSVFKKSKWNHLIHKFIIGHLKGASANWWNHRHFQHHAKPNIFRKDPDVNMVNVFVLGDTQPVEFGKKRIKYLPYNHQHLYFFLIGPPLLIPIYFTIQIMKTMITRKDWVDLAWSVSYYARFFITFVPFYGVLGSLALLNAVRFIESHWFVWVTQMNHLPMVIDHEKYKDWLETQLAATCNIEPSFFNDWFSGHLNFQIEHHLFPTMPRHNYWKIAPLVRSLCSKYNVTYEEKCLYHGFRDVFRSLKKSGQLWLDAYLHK
The experiment is described as follows: co-IP.

The target in experiment [3] is T3, MmFADS2-FLAG (fatty acid desaturase 2 of Mus musculus) (Mus musculus).
T3 sequence: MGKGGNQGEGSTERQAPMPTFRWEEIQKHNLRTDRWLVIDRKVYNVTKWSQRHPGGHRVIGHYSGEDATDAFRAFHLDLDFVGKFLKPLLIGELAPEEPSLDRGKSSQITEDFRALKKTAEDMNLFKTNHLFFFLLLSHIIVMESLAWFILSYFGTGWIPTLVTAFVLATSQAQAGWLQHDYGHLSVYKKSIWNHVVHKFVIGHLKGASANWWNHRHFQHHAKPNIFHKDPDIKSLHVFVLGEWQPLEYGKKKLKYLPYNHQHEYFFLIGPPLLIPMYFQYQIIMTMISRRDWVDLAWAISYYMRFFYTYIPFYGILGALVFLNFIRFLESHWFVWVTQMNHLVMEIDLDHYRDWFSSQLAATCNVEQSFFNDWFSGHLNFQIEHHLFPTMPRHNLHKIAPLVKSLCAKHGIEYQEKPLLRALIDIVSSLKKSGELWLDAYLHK
As to the kind of experiment: co-IP.

Experiment [4] addresses T4, HA-DrSTING stably expressed in MEF Sting-/- cells (MEF^DrSTING) (Danio rerio).
T4 sequence: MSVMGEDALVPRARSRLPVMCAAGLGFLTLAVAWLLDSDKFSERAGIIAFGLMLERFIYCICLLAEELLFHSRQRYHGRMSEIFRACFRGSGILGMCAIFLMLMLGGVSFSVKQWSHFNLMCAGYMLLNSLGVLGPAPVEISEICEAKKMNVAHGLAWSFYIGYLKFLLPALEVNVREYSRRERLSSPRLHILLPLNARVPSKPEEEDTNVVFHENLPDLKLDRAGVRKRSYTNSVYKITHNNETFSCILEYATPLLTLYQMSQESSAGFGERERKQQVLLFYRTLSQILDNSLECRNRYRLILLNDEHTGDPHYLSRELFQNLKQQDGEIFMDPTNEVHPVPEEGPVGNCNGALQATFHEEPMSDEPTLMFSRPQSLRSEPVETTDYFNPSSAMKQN
The experiment is described as follows: co-IP.

The target of experiment [5] is T5, HA-MbSTING stably expressed in MEF Sting-/- cells (MEF^MbSTING) (Monosiga brevicollis).
T5 sequence: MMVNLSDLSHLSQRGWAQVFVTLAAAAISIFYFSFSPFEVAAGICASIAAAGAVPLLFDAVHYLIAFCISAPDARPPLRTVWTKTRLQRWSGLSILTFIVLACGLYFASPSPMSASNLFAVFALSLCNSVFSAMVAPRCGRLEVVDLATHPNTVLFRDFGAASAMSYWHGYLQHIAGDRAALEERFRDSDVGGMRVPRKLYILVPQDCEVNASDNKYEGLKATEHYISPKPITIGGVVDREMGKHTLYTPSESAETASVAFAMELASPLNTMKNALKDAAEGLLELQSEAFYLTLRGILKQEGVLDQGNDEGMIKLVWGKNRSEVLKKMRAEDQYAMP
As to the kind of experiment: co-IP.

Experiment [6] addresses T6, HA-MmSTING stably expressed in MEF Sting-/- cells (MEF^MmSTING) (Mus musculus).
T6 sequence: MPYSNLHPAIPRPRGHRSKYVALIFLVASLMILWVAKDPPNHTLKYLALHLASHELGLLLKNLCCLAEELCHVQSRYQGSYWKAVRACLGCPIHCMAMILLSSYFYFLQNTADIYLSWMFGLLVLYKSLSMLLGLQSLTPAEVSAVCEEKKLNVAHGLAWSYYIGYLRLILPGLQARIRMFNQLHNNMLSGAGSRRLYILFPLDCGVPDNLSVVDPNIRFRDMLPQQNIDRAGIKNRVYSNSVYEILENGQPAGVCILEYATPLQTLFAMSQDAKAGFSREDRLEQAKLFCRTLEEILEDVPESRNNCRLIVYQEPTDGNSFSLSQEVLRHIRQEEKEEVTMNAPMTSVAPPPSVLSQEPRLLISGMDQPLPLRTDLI
As to the kind of experiment: co-IP.

The target of experiment [7] is HA-NvSTING stably expressed in MEF Sting-/- cells (MEF^NvSTING) (Nematostella vectensis). The experiment is described as follows: co-IP.
Experiment [8] addresses T1, HA-XtSTING stably expressed in MEF Sting-/- cells (MEF^XtSTING) (Xenopus tropicalis). The experiment is described as follows: co-IP.

Results are given in words; binding and its absence hold for the method and conditions named. For some assays here: In cells and extracts the contact can be indirect. Some entries that bind do so weakly or less than the wild type. For some assays here: Sequences can lack the tags named with a protein.

B1: HA-XtSTING stably expressed in MEF Sting-/- cells (MEF^XtSTING) (protein)
chain: MASIRNTLATQNRQIIPERRGKRATKMACVLAIGSILFVWILGKGKYSGAQLIYRMAINFAISQGCCLVTCACELTEEIKHLHTRYNGHYWRALKASFNLSCAAFVTAILCYVFYEPKLMASLPLTIDITLTLLSWLFCWILGIQGPTPATISEITEIKQLNVAHGLAWSYYVGYLQFVLPALKESIQKFNEENHNLLKFPETCRLHILIPLSCRLYGDLKDVDENITFLKEIPPLYIDRAGIKGRVFKNNVYRILDEDGRPYNCIVEYATPLASLLKMTDIPSAAFSADDRLQQTKLFYRTLKDILENAHELQNTYRLIVYEDFPETKDHSRHLLSQEILKHIRQQHSEEYSML
In the case of B1, the binding entry in experiment [1] is recorded as “binds”.

B2: HA-XtSTING (STING of Xenopus tropicalis), expressed in HEK 293T (protein)
chain: MASIRNTLATQNRQIIPERRGKRATKMACVLAIGSILFVWILGKGKYSGAQLIYRMAINFAISQGCCLVTCACELTEEIKHLHTRYNGHYWRALKASFNLSCAAFVTAILCYVFYEPKLMASLPLTIDITLTLLSWLFCWILGIQGPTPATISEITEIKQLNVAHGLAWSYYVGYLQFVLPALKESIQKFNEENHNLLKFPETCRLHILIPLSCRLYGDLKDVDENITFLKEIPPLYIDRAGIKGRVFKNNVYRILDEDGRPYNCIVEYATPLASLLKMTDIPSAAFSADDRLQQTKLFYRTLKDILENAHELQNTYRLIVYEDFPETKDHSRHLLSQEILKHIRQQHSEEYSML
With B2, the binding entry in experiment [2] was “no binding”.

B3: HA-MmSTING (STING of Mus musculus), expressed in HEK 293T (protein)
chain: MPYSNLHPAIPRPRGHRSKYVALIFLVASLMILWVAKDPPNHTLKYLALHLASHELGLLLKNLCCLAEELCHVQSRYQGSYWKAVRACLGCPIHCMAMILLSSYFYFLQNTADIYLSWMFGLLVLYKSLSMLLGLQSLTPAEVSAVCEEKKLNVAHGLAWSYYIGYLRLILPGLQARIRMFNQLHNNMLSGAGSRRLYILFPLDCGVPDNLSVVDPNIRFRDMLPQQNIDRAGIKNRVYSNSVYEILENGQPAGVCILEYATPLQTLFAMSQDAKAGFSREDRLEQAKLFCRTLEEILEDVPESRNNCRLIVYQEPTDGNSFSLSQEVLRHIRQEEKEEVTMNAPMTSVAPPPSVLSQEPRLLISGMDQPLPLRTDLI
For the molecule B3, in experiment [3], the binding result is listed as “binds”.

B4: endogenous MmFADS2 (fatty acid desaturase 2 of mouse embryonic fibroblasts) (protein, UniProt Q9Z0R9 1-444)
chain: MGKGGNQGEGSTERQAPMPTFRWEEIQKHNLRTDRWLVIDRKVYNVTKWSQRHPGGHRVIGHYSGEDATDAFRAFHLDLDFVGKFLKPLLIGELAPEEPSLDRGKSSQITEDFRALKKTAEDMNLFKTNHLFFFLLLSHIIVMESLAWFILSYFGTGWIPTLVTAFVLATSQAQAGWLQHDYGHLSVYKKSIWNHVVHKFVIGHLKGASANWWNHRHFQHHAKPNIFHKDPDIKSLHVFVLGEWQPLEYGKKKLKYLPYNHQHEYFFLIGPPLLIPMYFQYQIIMTMISRRDWVDLAWAISYYMRFFYTYIPFYGILGALVFLNFIRFLESHWFVWVTQMNHLVMEIDLDHYRDWFSSQLAATCNVEQSFFNDWFSGHLNFQIEHHLFPTMPRHNLHKIAPLVKSLCAKHGIEYQEKPLLRALIDIVSSLKKSGELWLDAYLHK
Regarding B4, the binding entry in experiment [4], in experiment [5], in experiment [6], in experiment [7] and in experiment [8] was “binds” each time.

The record behind these values is paper doi:10.1101/2025.11.17.688879.
